From article PMC9280364, “MdNAC4 Interacts With MdAPRR2 to Regulate Nitrogen Deficiency-Induced Leaf Senescence in Apple (Malus domestica)” come the findings set out here.

The exact form of at least one protein or probe is not confirmed. No signal at the amounts used counts as a negative. Protein sequences can lack the tags named with them.

This data set has as its target T1, MdNAC4-GST (Malus domestica) (UniProt B6DXL4).
T1 sequence (looked up): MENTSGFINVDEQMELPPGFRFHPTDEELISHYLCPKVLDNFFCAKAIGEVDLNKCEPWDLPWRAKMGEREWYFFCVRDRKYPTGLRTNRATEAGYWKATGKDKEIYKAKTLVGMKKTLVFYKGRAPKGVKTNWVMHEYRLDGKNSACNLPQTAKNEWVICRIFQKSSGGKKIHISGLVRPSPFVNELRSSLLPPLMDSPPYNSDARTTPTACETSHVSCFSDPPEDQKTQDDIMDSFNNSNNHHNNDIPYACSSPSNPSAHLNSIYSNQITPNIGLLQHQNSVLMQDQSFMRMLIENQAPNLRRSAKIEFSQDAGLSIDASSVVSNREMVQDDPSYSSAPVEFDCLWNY
Briefly: EMSA. Particulars: EMSA binding buffer (composition not given), 24 °C, 30 min in the dark; recombinant protein; residues 1-350; protein details: GST (pGEX-4T-1 type primers GST-MdNAC4-F/R). For orientation: A gel shift assay detects complexes by their altered migration in electrophoresis.

As for “ATATAGGCCCGTCAAGGGAGGACAGAGATG / CATCTCTGGCCTGCCTTCACGTGCCTATAT [MdNYC1 Mut probe]”, the binding result is listed as “no binding”.
